# From the supplement of paper PMC7411640
# Structures can show the parent of a compound that is named as a salt. The list shows a part of the results. Single values are uncertain here, since repeats match poorly.
# Tested on: MDA-MB-468
# Experiment: phospho-S6 immunofluorescence (DAPI-normalised), per-plate z-score; higher = higher phospho-S6 signal (less pathway suppression)
# Details: compound 0.1 µM; co-treatment: vehicle; 24 h
# Method: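 GPCR-targeted compound library (MedChemExpress HY-L006) tested on MDA-MB-468 PTEN-null TNBC cells in 384-well plates at 0.1, 1 or 10 uM, combined with vehicle, GDC0941 450 nM or lapatinib 1 uM, for 24 h. Phospho-S6 (S240/244) immunofluorescence normalised to DAPI and expressed as a per-plate z-score; values are the mean of biological triplicates.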
row,Compound,phospho-S6 immunofluorescence (z-score)
1,CCOc1nc2cccc(C(=O)OC(C)OC(=O)OC3CCCCC3)c2n1Cc1ccc(-c2ccccc2-c2nn[nH]n2)cc1 (centres undefined) [Candesartan (Cilexetil)],-0.22
2,Cc1nc2n(c(=O)c1CCN1CCC(c3noc4cc(F)ccc34)CC1)CCCC2O (centres undefined) [Paliperidone],0.4
3,CCNC(=O)[C@H]1O[C@@H](n2cnc3c(N)nc(NCCc4ccc(CCC(=O)O)cc4)nc32)[C@H](O)[C@@H]1O,-0.21
4,CC(C)(Cc1ccc2ccccc2c1)NC[C@@H](O)COc1cccc(Cl)c1C#N,-0.99
5,CC(C)(Cc1ccc2ccccc2c1)NC[C@@H](O)COc1cccc(Cl)c1C#N [NPS-2143 (hydrochloride)],0.07
6,CC(C)N(CCCCOCC(=O)NS(C)(=O)=O)c1cnc(-c2ccccc2)c(-c2ccccc2)n1,-0.51
7,O=C(O[C@@H]1C[C@@H]2C[C@H]3C[C@H](C1)N2CC3=O)c1c[nH]c2ccccc12 [Dolasetron],-0.48
8,CC(C)(C)NCC(O)c1cc(O)cc(O)c1 (centres undefined) [Terbutaline (sulfate)],1.23
9,COc1cc(NC(=O)c2ccccn2)ccc1Cl,0.57
10,C[C@@H](NCCCc1cccc(C(F)(F)F)c1)c1cccc2ccccc12 [Cinacalcet (hydrochloride)],-0.68
11,Cc1cc2c(cc1Cl)N(C(=O)Nc1ccc(Oc3cccnc3C)nc1)CC2,0.37
12,NC(=O)CC[C@H](N)C(=O)O [L-Glutamine],-0.78
13,O=C(c1ccc(F)cc1)N1CCC[C@H](c2nc(-c3ccc(F)cc3)no2)C1,-0.15
14,O=C1O[C@]2(CC[C@H](C(=O)Nc3ccn(-c4ccccc4F)n3)CC2)c2cnccc21,0.06

# Same assay, conditions: compound 1 µM; co-treatment: GDC0941 450 nM; 24 h
row,Compound,phospho-S6 immunofluorescence (z-score)
1,CCOC(=O)N[C@@H]1CC[C@@H]2[C@@H](C1)C[C@H]1C(=O)O[C@H](C)[C@H]1[C@H]2/C=C/c1ccc(-c2cccc(F)c2)cn1 [Vorapaxar],-6.58
2,CC(C)c1noc(N2CCC(COc3ccc(-c4ccc(S(C)(=O)=O)cc4)nc3)CC2)n1,-0.48
3,CC(C)NCC(O)COc1ccc(CCOCC2CC2)cc1 (centres undefined) [Betaxolol (hydrochloride)],1.44
4,CC(C)NC[C@H](O)COc1ccc(CCOCC2CC2)cc1 [Levobetaxolol (hydrochloride)],-0.85
5,OC(CCN1CCCCC1)(c1ccccc1)C1CCCCC1 (centres undefined) [Trihexyphenidyl (hydrochloride)],-1.23
6,Clc1cccc(COc2cncc(N3CCNCC3)n2)c1,-0.01
7,Cc1c(C(=O)NN2CCCCC2)nn(-c2ccc(Cl)cc2Cl)c1-c1ccc(Cl)cc1 [Rimonabant (Hydrochloride)],-1.79
8,CCOc1ccccc1OCCN[C@H](C)Cc1ccc(OC)c(S(N)(=O)=O)c1 [Tamsulosin],-0.28
9,CN(C)CCOC(C)(c1ccccc1)c1ccccn1 (centres undefined) [Doxylamine (succinate)],-0.07
10,COCCCN1CCC(NC(=O)c2cc(Cl)c(N)c3c2OCC3)CC1 [Prucalopride],0.22
11,Nc1nc(CC(=O)Nc2ccc(CCNC[C@H](O)c3ccccc3)cc2)cs1 [Mirabegron],1.4
12,CCNC(=O)[C@@H]1CCCN1C(=O)[C@H](CCCNC(=N)N)NC(=O)[C@H](CC(C)C)NC(=O)[C@@H](COC(C)(C)C)NC(=O)[C@H](Cc1ccc(O)cc1)NC(=O)[C@H](CO)NC(=O)[C@H](Cc1c[nH]c2ccccc12)NC(=O)[C@H](Cc1cnc[nH]1)NC(=O)[C@@H]1CCC(=O)N1 [Buserelin (Acetate)],0.77
13,CC(=O)Nc1cccc2c1c(Sc1ccc(Cl)cc1)c(C)n2CC(=O)O,0
14,COc1nc(C)nc(Cl)c1NC1=NCCN1 [Moxonidine],0.27
15,CC(COc1ccccc1)N(CCCl)Cc1ccccc1 (centres undefined) [Phenoxybenzamine (hydrochloride)],0.5
16,CC(C)COc1ccc(CNC(=O)N(Cc2ccc(F)cc2)C2CCN(C)CC2)cc1 [Pimavanserin],0.84
17,c1ccc2c(c1)OCC(CN1CCCCC1)O2 (centres undefined) [Piperoxan (hydrochloride)],0.91
18,O=C(O[C@@H]1C[C@@H]2C[C@H]3C[C@H](C1)N2CC3=O)c1c[nH]c2ccccc12 [Dolasetron (Mesylate hydrate)],-0.17
19,O=C1NCC2(CCN(CCc3ccccc3)CC2)O1 [Fenspiride (Hydrochloride)],0.55
20,CN(C)CCc1c[nH]c2ccc(C[C@H]3COC(=O)N3)cc12 [Zolmitriptan],0.13

row,Compound,phospho-S6 immunofluorescence (z-score)
1,Clc1ccc2c(c1)CCc1cccnc1C2=C1CCNCC1 [Desloratadine],0.29
2,COc1cc2c(cc1OC)CN(C(=O)[C@@H](NCc1ccncc1)C(C)(C)C)CC2,0.07
3,CN1CCCC(n2nc(Cc3ccc(Cl)cc3)c3ccccc3c2=O)CC1 (centres undefined) [Azelastine (hydrochloride)],-0.67
4,CNC(=C[N+](=O)[O-])NCCSCc1csc(CN(C)C)n1 [Nizatidine],-0.24
5,CN(C)CCN1C(=O)c2cccc3cc(NC(N)=O)cc(c23)C1=O,4.63
6,CN1CCN(C2=Nc3ccccc3Oc3ccc(Cl)cc32)CC1 [Loxapine (succinate)],-1.48
7,CCOc1nc2cccc(C(=O)OC(C)OC(=O)OC3CCCCC3)c2n1Cc1ccc(-c2ccccc2-c2nn[nH]n2)cc1 (centres undefined) [Candesartan (Cilexetil)],-0.79
8,Cc1nc2n(c(=O)c1CCN1CCC(c3noc4cc(F)ccc34)CC1)CCCC2O (centres undefined) [Paliperidone],0.58
9,CCNC(=O)[C@H]1O[C@@H](n2cnc3c(N)nc(NCCc4ccc(CCC(=O)O)cc4)nc32)[C@H](O)[C@@H]1O,0.1
10,CC(C)(Cc1ccc2ccccc2c1)NC[C@@H](O)COc1cccc(Cl)c1C#N,-2.19
11,CC(C)(Cc1ccc2ccccc2c1)NC[C@@H](O)COc1cccc(Cl)c1C#N [NPS-2143 (hydrochloride)],-8.6
12,CC(C)N(CCCCOCC(=O)NS(C)(=O)=O)c1cnc(-c2ccccc2)c(-c2ccccc2)n1,0.69
13,O=C(O[C@@H]1C[C@@H]2C[C@H]3C[C@H](C1)N2CC3=O)c1c[nH]c2ccccc12 [Dolasetron],-0.26
14,CC(C)(C)NCC(O)c1cc(O)cc(O)c1 (centres undefined) [Terbutaline (sulfate)],-0.24
15,COc1cc(NC(=O)c2ccccn2)ccc1Cl,0.72
16,C[C@@H](NCCCc1cccc(C(F)(F)F)c1)c1cccc2ccccc12 [Cinacalcet (hydrochloride)],-0.74
17,Cc1cc2c(cc1Cl)N(C(=O)Nc1ccc(Oc3cccnc3C)nc1)CC2,-0.48
18,NC(=O)CC[C@H](N)C(=O)O [L-Glutamine],1.31
19,O=C(c1ccc(F)cc1)N1CCC[C@H](c2nc(-c3ccc(F)cc3)no2)C1,-0.86
20,O=C1O[C@]2(CC[C@H](C(=O)Nc3ccn(-c4ccccc4F)n3)CC2)c2cnccc21,0.1
